The subject of this data set is Staphopain A and B. In words: Staphopain A and B bioresponsive degradation assay. The following applies: 100 nM staphopain, 1 μM substrate, room temperature, 2 hr. The data set is classed as biochemical.
As for “Pro-arg-arg-ile-sys-val (PRRICV) [LAR-7048]”, the “Degradation of peptide substrate by staphopain (fragment observed)” value is recorded as “No degradation”.
On to “val-phe-phe-arg-arg-gln-thr-ala (VFFRRQTA) [LAR-7047]”, for which the “Degradation of peptide substrate by staphopain (fragment observed)” value is reported as “No degradation”.
The result for “β-ala-asp-asp-ile-gly-thr-ser-arg-pro-gln-glu (ADDIGTSRPQE; N-terminal beta-alanine) [LAR-7022, peptide targeted to microbial excreted proteases (aureolysin, staphopain)]” reads “produced specific fragment pick: 717.37 corresponding to TSRPQE sequence”.

These data come from patent US8962697B2 (Interface Biologics Inc., priority 2006, dated 2015).
